Measured values as given in patent US20220265769A1, “COMPOSITIONS AND METHODS OF TREATMENT FOR BREAST CANCER INVOLVING A NOVEL CAPER?-MLL1 COMPLEX” (Geisinger Health, priority 2019, published 2022).

Test system: T47D cells
Test: Nuclear entry of His-tagged peptides in T47D cells (anti-His immunoblot of Dignam lysates, immunocytochemistry)
Type: cell-based, human

CPP-E445-V476: synthetic RRM3-derived peptide E445-V476 with Penetratin and His tags (SEQ ID NO: 15; with His tag SEQ ID NO: 14) (RQIKIWFQNRRMKWKKGGEIKDDVIEECNKHGGVIHIYVDKNSAQGNVYVHHHHHH; RRM3-derived synthetic sequence)
subcellular localisation of His-tagged peptide (anti-His immunocytochemistry): in cytoplasm and nucleus of all cells
